This assay in a line: qHTS Assay for Lipid Storage Modulators in Drosophila S3 Cells.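 For cell number change: cells counted by Cell Tracker Red CMTPX staining in the red channel.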 The settings on record: BODIPY lipid droplet fluorescence, 18-24 h; for cell number change: measured here: cell count max response, cells fed with added oleic acid. In a few lines: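 Laser-scanning cytometry quantifies lipid droplet accumulation (500–530 nm total intensity; droplet/cell object ratio) in oleic acid-fed (400 uM added) Drosophila S3 cells treated with a concentration series. 20 uM Triacsin C defined 100% inhibition.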

The mark [1] stands for this setting: measured here: lipid fluorescence (Fed channel) AC50, cells fed with added oleic acid.
The mark [2] stands for this setting: measured here: cell number channel AC50, cells fed with added oleic acid.

This passage reports cell number change and AC50 results from PubChem BioAssay AID2685 (National Center for Advancing Translational Sciences (NCATS), 2010).

Each structure is given as a SMILES string. Some of the results follow. Shown are side measurements of this screen, not its main read-out; they come without a call. The list favours compounds with an active or inconclusive main result. Words in brackets tell the shape of the fitted curve; partial curves, single points and poor fits give uncertain potencies.

Take `O=C(COC(=O)c1ccccc1NCCO)NCCC1=CCCCC1`: the cell number change was -3.5%.
One may read the AC50 as the concentration giving half of the maximal activity seen. Higher therefore signals activity only at high concentration. As to `Cc1ccsc1CN(C)C(=O)c1cc(S(=O)(=O)N2CCOCC2)ccc1N1CCCC1`, the cell number change was 10.4%. The AC50 under setting [1] is 0.164 µM [falling, full curve, poor fit].
For the compound `COC(=O)c1nn(-c2ccc(OC)cc2)c(=O)cc1Sc1ccc(C)cc1`, the cell number change was -24.4%. The AC50 under setting [2] was 0.326 µM [rising, single point].
On to `Cn1nc(C(=O)NC2CCCCC2)c2c1-c1ccccc1SC2`, for which the cell number change was 14.4%. Besides, the concentration at half-maximal activity (AC50) under setting [2] is 0.00461 µM [rising, full curve, poor fit]. For the same compound, the concentration at half-maximal activity (AC50) under setting [1] was 29.1 µM [rising, single point].
In the case of `COc1ccc(N2CC(C(=O)Nc3nc(-c4ccccc4)c(C(C)=O)s3)CC2=O)c(OC)c1` (stereo not drawn), the cell number change turned out to be 21.2%.
Regarding `O=C(O)c1cc2nc(-c3cccs3)cc(C(F)(F)F)n2n1`, the cell number change was -14.5%. In addition, the AC50 under setting [2] is 4.61 µM [rising, single point]. Also, the AC50 under setting [1] is 0.00731 µM [falling, full curve, poor fit].
Turning to `CCOc1ccc(N/C=C/C(=O)c2ccc3ccccc3c2)c([N+](=O)[O-])c1`, the cell number change was 28.8%. The AC50 under setting [1] is 0.13 µM [rising, full curve, poor fit].
Consider `Cc1ccc(N2CC(NC(=O)N3CCN(C(=O)c4ccco4)CC3)CC2=O)cc1` (stereo not drawn), for which the cell number change amounted to 8.86%. Moreover, the AC50 under setting [1] was 20.6 µM [falling, single point].
Take `CC(=O)c1cccc(NC(=O)CCNS(=O)(=O)c2cccc3nsnc23)c1`: the cell number change was 37.3%. The AC50 under setting [2] is 29.1 µM [rising, single point]. Besides, the AC50 under setting [1] was 23.1 µM [rising, partial curve].
Take `COc1ccc(/C=C(\C#N)C(=O)NCc2cccs2)cc1OC`: the cell number change turned out to be 5.99%. In addition, the concentration at half-maximal activity (AC50) under setting [1] is 1.46 µM [falling, partial curve].
For `COc1ccc(/C=C/c2nc(C#N)c(NCCN(C)C)o2)cc1OC`, the cell number change was found to be 1.55%. For the same compound, the concentration at half-maximal activity (AC50) under setting [1] is 0.00411 µM [rising, full curve, poor fit].
With `CCN(CC)CCN1C(=O)C2C3c4ccccc4C(c4ccccc43)C2C1=O` (stereo not drawn), the cell number change is -28.2%. Also, the AC50 under setting [1] is 4.11 µM [falling, full curve].
`CN1CCc2c(sc3nc(NN)n(Cc4ccccc4)c(=O)c23)C1`: the half-maximal activity concentration (AC50) under setting [1] was 0.082 µM [rising, full curve].
Take `COc1ccc(C(=O)N2CCN(Cc3ccc4c(c3)OCO4)CC2)cc1OC`: the cell number change was -18.4%. Further, under setting [1], the AC50 is 20.6 µM [falling, single point].
Take `COc1ccc(C2CC(c3cccs3)=NN2C(=O)CSc2nncn2C)cc1OC` (stereo not drawn): the cell number change is -3.17%. The AC50 under setting [2] was 4.61 µM [rising, single point]. In addition, the half-maximal activity concentration (AC50) under setting [1] was 3.66 µM [rising, single point].
Turning to `Cc1cc(CN2CCCCC2)oc1C(=O)O`, the cell number change was -22.2%. The AC50 under setting [1] is 0.651 µM [falling, partial curve, poor fit].
Consider `C=CCN=C1NN=C(c2cc(C)n(CCOC)c2C)CS1`, for which the cell number change turned out to be 24.1%. Further, under setting [1], the AC50 was 0.326 µM [falling, partial curve, poor fit].
Turning to `Cc1c(C(=O)Nc2ccccc2)sc2ncn(CC(=O)N3CCCCC3)c(=O)c12`, the cell number change was -0.435%. Under setting [1], the AC50 was 0.58 µM [falling, single point].
Turning to `COCc1cc(C)nc(SCC[N+](C)(C)CC(=O)Nc2cccc(C(F)(F)F)c2)c1C#N`, the cell number change was -48.5%. In addition, under setting [2], the AC50 is 0.00517 µM [falling, full curve, poor fit]. Moreover, the AC50 under setting [1] was 3.66 µM [falling, full curve].
`CC(C)N1CC(O)=C(c2ccccc2)C1=N`: the cell number change is -7.45%. Moreover, the half-maximal activity concentration (AC50) under setting [1] was 0.0116 µM [falling, full curve].
On to `COc1ccc(C(=O)Nc2ccc(N3CCCC3)cc2)cc1OC`, for which the cell number change is -24.3%.
As for `COc1ccc(C(=O)NC(=S)NCc2cccnc2)cc1[N+](=O)[O-]`, the cell number change was 10.4%. Besides, the AC50 under setting [1] was 6.51 µM [rising, full curve, poor fit].
As for `Nc1ncnc2c1ncn2C1CCC(CO)C(O)C1` (stereo not drawn), the cell number change was -33.4%. Besides, under setting [2], the AC50 is 0.206 µM [falling, full curve]. In addition, the AC50 under setting [1] was 4.11 µM [falling, full curve].
In the case of `O=C(Cn1cc(C(F)(F)F)ccc1=O)NCc1ccc(F)cc1`, the cell number change was -1.9%. Also, the AC50 under setting [2] is 0.103 µM [falling, partial curve, poor fit].
Regarding `Cc1ccc(S(=O)(=O)Cn2nnnc2C(C)N2CCN(C(=O)c3ccco3)CC2)cc1` (stereo not drawn), the cell number change is -10.4%.
Take `CCOC(=O)C1CCN(CC(O)COCc2ccc(Cl)cc2)CC1` (stereo not drawn): the concentration at half-maximal activity (AC50) under setting [1] is 23.1 µM [falling, single point].
As to `O=C(Nc1ccncc1)C1CCN(S(=O)(=O)c2ccc(Cl)c(C(F)(F)F)c2)CC1`, under setting [1], the AC50 is 11.6 µM [falling, partial curve, poor fit].
Regarding `COc1cc(NC(=O)CCc2nnc3ccc(N4CCCCC4)nn23)cc(OC)c1OC`, the cell number change was -28.3%. The AC50 under setting [1] was 29.1 µM [falling, single point].
With `O=S(=O)(NCCCc1ccccc1)c1ccc(Cl)cc1`, the cell number change is -31.6%. Further, the AC50 under setting [2] is 10.3 µM [falling, partial curve, poor fit]. For the same compound, the concentration at half-maximal activity (AC50) under setting [1] is 11.6 µM [falling, partial curve, poor fit].
Take `CC(=O)N1CCN(Cc2nc3cc(NC(=O)COc4cccc(C)c4)ccc3n2C)CC1`: the cell number change was 24.8%. Under setting [2], the AC50 was 0.00517 µM [rising, full curve, poor fit]. The half-maximal activity concentration (AC50) under setting [1] is 6.51 µM [falling, single point].
As for `COC(=O)c1ccccc1NC(=O)CN1C(=O)NC2(CCCCCCC2)C1=O`, the cell number change was determined as 9.96%. Under setting [1], the AC50 is 4.11 µM [rising, full curve, poor fit].
For `O=C(Cc1cccc(C(F)(F)F)c1)Nc1cc(S(=O)(=O)N2CCOCC2)ccc1N1CCCC1`, the cell number change is -13.7%. In addition, the half-maximal activity concentration (AC50) under setting [1] is 0.651 µM [falling, single point].
For `CCCCNS(=O)(=O)NC(=O)C1=C(N2CCCC2)COC1=O`, the cell number change turned out to be 8.9%. Further, under setting [1], the concentration at half-maximal activity (AC50) was 0.00517 µM [rising, full curve, poor fit].
For the compound `CCNC(=S)N1C2CCC1CC(NC(=O)Nc1ccc(C(=O)OCC)cc1)C2` (stereo not drawn), the cell number change amounted to 29.6%. Under setting [1], the AC50 is 16.4 µM [rising, partial curve].
As for `Brc1cc2c(cc1Br)OCCOCCOCCO2`, the cell number change was 13.7%. Under setting [1], the half-maximal activity concentration (AC50) is 25.9 µM [rising, single point].
Take `O=C(NCc1ccccn1)Nc1cccc(Cl)c1Cl`: the cell number change is -2.31%.
Turning to `CCO[C@@H]1OC(C(=O)NC2CC2)=C[C@H](C2CC2)[C@H]1CCCO`, under setting [2], the AC50 is 0.146 µM [falling, full curve, poor fit].
